Experimental data from paper PMC2432501.
For some assays here: No signal at the amounts used counts as a negative. For some assays here: At least one verdict was read from the data and is not stated in words by the source. For some assays here: The comparison behind a weaker result is the experiment's own reference, which may not be listed here. For some assays here: Construct, isoform or probe ends are uncertain for at least one entry.

Chains of the proteins cited; added tags and fusions are not shown. A line that says so, or that is headed by a name, gives the form on record, which may keep a tag or linker.
tauMTBD (microtubule-binding domain) (human), one chain, as listed by the source: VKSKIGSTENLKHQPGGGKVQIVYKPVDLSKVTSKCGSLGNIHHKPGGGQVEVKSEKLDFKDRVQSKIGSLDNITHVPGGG
tau23 (human), one chain, as listed by the source: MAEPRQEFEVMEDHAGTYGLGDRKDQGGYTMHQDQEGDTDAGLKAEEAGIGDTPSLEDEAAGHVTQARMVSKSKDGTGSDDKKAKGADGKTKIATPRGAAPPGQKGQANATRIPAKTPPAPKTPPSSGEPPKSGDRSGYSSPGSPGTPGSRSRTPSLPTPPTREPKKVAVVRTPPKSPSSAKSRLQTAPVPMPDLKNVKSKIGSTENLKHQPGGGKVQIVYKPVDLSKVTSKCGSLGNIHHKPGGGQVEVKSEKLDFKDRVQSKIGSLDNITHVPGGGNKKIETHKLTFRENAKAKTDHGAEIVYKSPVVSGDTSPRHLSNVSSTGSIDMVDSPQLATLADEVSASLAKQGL
tauN (N-terminal region) (human), one chain, as listed by the source: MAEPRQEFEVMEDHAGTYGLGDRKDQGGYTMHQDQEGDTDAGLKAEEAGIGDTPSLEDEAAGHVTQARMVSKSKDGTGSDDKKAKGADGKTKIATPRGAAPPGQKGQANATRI

Key:
[1] = test system: tauMTBD (microtubule-binding domain) (human); test: EMSA; conditions: marked shift at about four times the tau23 ratio, 2.5 uM DNA; 20 mM Tris pH 7.2, 50 mM NaCl, 0.5 mM DTT, 1 mM MgCl2, 0.5 mM EDTA, room temperature 20-30 min; native PAGE in 1xTBE (20% gel at 4 C, or 8% for the 26 bp assay); recombinant protein; residues 198-278; protein details: C-terminal His-tag
[2] = test system: tauC (C-terminal region) (human); test: EMSA; conditions: same conditions as Fig 7; 20 mM Tris pH 7.2, 50 mM NaCl, 0.5 mM DTT, 1 mM MgCl2, 0.5 mM EDTA, room temperature 20-30 min; native PAGE in 1xTBE (20% gel at 4 C, or 8% for the 26 bp assay); recombinant protein; residues 279-352; protein details: C-terminal His-tag
[3] = test system: tauPro (proline-rich domain) (human); test: EMSA; conditions: shift at [protein]/[DNA] 2/1 or higher, 2.5 uM DNA; 20 mM Tris pH 7.2, 50 mM NaCl, 0.5 mM DTT, 1 mM MgCl2, 0.5 mM EDTA, room temperature 20-30 min; native PAGE in 1xTBE (20% gel at 4 C, or 8% for the 26 bp assay); recombinant protein; residues 114-193; protein details: C-terminal His-tag
[4] = test system: tauN (N-terminal region) (human); test: EMSA; conditions: same conditions as Fig 7; 20 mM Tris pH 7.2, 50 mM NaCl, 0.5 mM DTT, 1 mM MgCl2, 0.5 mM EDTA, room temperature 20-30 min; native PAGE in 1xTBE (20% gel at 4 C, or 8% for the 26 bp assay); recombinant protein; residues 1-113; protein details: C-terminal His-tag
[5] = test system: tau23 (human); test: EMSA; conditions: [tau]/[bp] 1/10; 20 mM Tris pH 7.2, 50 mM NaCl, 0.5 mM DTT, 1 mM MgCl2, 0.5 mM EDTA, room temperature 20-30 min; native PAGE in 1xTBE (20% gel at 4 C, or 8% for the 26 bp assay); recombinant protein; residues 1-352
[6] = test system: tau23 (human); test: competition EMSA; conditions: distamycin A, [distamycin A]/[DNA] 5/3 and above, [tau]/[DNA] 1/3; 20 mM Tris pH 7.2, 50 mM NaCl, 0.5 mM DTT, 1 mM MgCl2, 0.5 mM EDTA, room temperature 20-30 min; native PAGE in 1xTBE (20% gel at 4 C, or 8% for the 26 bp assay); recombinant protein; residues 1-352

AACGAGAAGCGCGATCACAT (double strand) [20 bp DNA]
binding result [1]: binds more weakly | binding result [2]: no binding | binding result [3]: binds more weakly | binding result [4]: no binding

ACTCCGTGCATAAATAA / TTATTTATGCACGGAG [16 bp DNA]
binding result [5]: binds

ACTCCGTGCATAAATAATAGGCACTCG / CCGAGTGCCTATTATTTATGCACGGAG [26 bp DNA]
binding result [6]: binds more weakly

ATCCGTGCATAAATAA / CTTATTTATGCACGGA [15 bp DNA]
binding result [5]: binds

GCTCCGTGCATAAATAATAGGC / CGAGCCTATTATTTATGCACGGAG [21 bp DNA]
binding result [5]: binds
